Data as given in US20050214288A1.
No constants are given. Whether binding was seen depends on the method and setting. Some results given as binding are weak or reduced against the parent protein; the word gives no strength. Tags and fused reporters may be left off the sequences shown.

Target: T1, biotinylated rHuNOGOSR-Flag (recombinant soluble human Flag-tagged NogoR) (human) (UniProt Q9BZR6)
T1 sequence (chain, biotinylated with Sulfo-NHS-LC-Biotin (sites not stated)): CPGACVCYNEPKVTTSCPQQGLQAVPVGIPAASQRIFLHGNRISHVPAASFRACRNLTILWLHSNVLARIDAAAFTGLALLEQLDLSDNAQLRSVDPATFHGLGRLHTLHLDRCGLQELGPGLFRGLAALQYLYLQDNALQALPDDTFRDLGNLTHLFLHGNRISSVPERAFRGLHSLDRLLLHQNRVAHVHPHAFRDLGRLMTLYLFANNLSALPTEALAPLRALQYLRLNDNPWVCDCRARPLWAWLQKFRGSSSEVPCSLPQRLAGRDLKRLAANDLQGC
Test: ECL matrix assay, streptavidin beads capture Biotin-sNogoR-Flag

binding: binds
B1: Recombinant Rat MAG-Fc (R&D Systems), labeled with Ori-TAG (Fc fusion, UniProt P07722 20-516, looked up, not shown: a dimerising Fc or GST)
chain: GHWGAWMPSSISAFEGTCVSIPCRFDFPDELRPAVVHGVWYFNSPYPKNYPPVVFKSRTQVVHESFQGRSRLLGDLGLRNCTLLLSTLSPELGGKYYFRGDLGGYNQYTFSEHSVLDIINTPNIVVPPEVVAGTEVEVSCMVPDNCPELRPELSWLGHEGLGEPTVLGRLREDEGTWVQVSLLHFVPTREANGHRLGCQAAFPNTTLQFEGYASLDVKYPPVIVEMNSSVEAIEGSHVSLLCGADSNPPPLLTWMRDGMVLREAVAESLYLDLEEVTPAEDGIYACLAENAYGQDNRTVELSVMYAPWKPTVNGTVVAVEGETVSILCSTQSNPDPILTIFKEKQILATVIYESQLQLELPAVTPEDDGEYWCVAENQYGQRATAFNLSVEFAPIILLESHCAAARDTVQCLCVVKSNPEPSVAFELPSRNVTVNETEREFVYSERSGLLLTSILTLRGQAQAPPRVICTSRNLYGTQSLELPFQGAHRLMWAKIGP
modifications: labeled with Origen-TAG-NHS at a molar challenge ratio of 5:1
